Reference: patent publication US20200291128A1 (ABEXXA BIOLOGICS, published 2020)
Results are given in words; binding and its absence hold for the method and conditions named. Some entries that bind do so weakly or less than the wild type. Blank lines part the entries; values can stand above or below the binder they belong to.

Sequences of proteins named here, by UniProt entry; tags and fusion partners are left off. A change or cut given only in a name is not applied to a line headed by its entry.
UniProt P13747: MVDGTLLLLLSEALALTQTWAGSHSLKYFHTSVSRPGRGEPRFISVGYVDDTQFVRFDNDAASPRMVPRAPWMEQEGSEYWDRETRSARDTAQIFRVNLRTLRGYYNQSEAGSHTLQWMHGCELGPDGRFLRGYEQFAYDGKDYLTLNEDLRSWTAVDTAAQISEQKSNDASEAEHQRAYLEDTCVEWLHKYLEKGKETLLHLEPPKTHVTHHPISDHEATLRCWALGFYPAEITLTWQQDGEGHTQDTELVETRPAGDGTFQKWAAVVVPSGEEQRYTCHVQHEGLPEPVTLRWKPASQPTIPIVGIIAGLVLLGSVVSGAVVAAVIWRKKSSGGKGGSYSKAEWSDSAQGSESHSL
UniProt P61769: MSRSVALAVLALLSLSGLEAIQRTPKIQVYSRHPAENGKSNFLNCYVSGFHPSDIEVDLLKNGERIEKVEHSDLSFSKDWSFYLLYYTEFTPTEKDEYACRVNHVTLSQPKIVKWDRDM

Assays:
[1] = biological target: T1, HLA-E protein as expressed in human tumor tissue (bound peptide not specified) (human) (UniProt P13747+P61769); experiment: elution from HLA-E captured on a 4D12 column, LC/MS/MS
[2] = biological target: T1, HLA-E protein as expressed in human tumor tissue (bound peptide not specified) (human); experiment: elution from affinity-purified HLA-E, LC/MS/MS against synthetic peptide

- binding [1]: binds
B1: peptide … (HEXB protein 26-34) (peptide)
peptide: MLALLTQVA

- binding [1]: binds
- binding [2]: binds
B2: peptide … (CAD protein 445-453) (peptide)
peptide: GLADKVYFL
